The comparison behind a weaker result is the experiment's own reference, which may not be listed here.
Molecular target: Taq DNA polymerase (wild type) (UniProt P19821)
Assay: binding assay
Conditions: [fluorescein-dT at 34]; dissociates 14-fold faster than D732R; too fast to record in FIG. 11 experiment; purified recombinant protein; label: fluorescein-dT at N (position 34); folded or branched DNA; letters built from the parent sequence and the stated change

Chains of the proteins cited; added tags and fusions are not shown.
UniProt P19821, whole entry: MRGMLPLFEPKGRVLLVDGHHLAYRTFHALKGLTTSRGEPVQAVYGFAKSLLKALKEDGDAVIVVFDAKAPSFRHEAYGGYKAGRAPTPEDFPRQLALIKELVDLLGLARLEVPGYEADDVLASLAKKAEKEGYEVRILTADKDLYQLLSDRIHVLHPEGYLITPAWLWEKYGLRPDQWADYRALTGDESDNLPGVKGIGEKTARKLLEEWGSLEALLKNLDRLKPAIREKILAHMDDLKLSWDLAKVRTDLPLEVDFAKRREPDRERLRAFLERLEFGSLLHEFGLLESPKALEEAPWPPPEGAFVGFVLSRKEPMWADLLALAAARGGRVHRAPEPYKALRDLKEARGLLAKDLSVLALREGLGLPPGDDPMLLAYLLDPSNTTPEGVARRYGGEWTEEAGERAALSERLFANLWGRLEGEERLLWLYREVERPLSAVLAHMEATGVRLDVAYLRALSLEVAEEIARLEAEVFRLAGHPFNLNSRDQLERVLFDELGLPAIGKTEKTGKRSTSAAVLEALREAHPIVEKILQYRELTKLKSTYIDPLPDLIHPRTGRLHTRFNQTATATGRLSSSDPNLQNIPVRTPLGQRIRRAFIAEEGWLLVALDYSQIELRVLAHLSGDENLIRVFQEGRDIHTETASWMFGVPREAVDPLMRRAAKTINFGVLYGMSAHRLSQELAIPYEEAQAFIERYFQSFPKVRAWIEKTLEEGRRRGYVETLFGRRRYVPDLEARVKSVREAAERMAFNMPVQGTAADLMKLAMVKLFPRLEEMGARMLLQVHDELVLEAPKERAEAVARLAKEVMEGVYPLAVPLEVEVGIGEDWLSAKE

“TTTTTTTGCAGGTGACAGGTTTTTCCTGTCACCTGC [oligo 221]”: binds more weakly.
